Results published in publication PMC6545562, “Slx5/Slx8‐dependent ubiquitin hotspots on chromatin contribute to stress tolerance” (The EMBO Journal, 2019).
Positions count from the first letter of the chain named. No constants are given. Whether binding was seen depends on the method and setting. Binding seen in cells or lysates may run through a third protein. Some binding calls cover weakened binding; strength is not graded here. Sequences can lack the tags named with a protein.

Key:
Assay in all cases: co-IP; native lysates of euc1∆ yeast expressing 3FLAG-Euc1 constructs from plasmids (EUC1 promoter); anti-FLAG beads (M2); eluates blotted for Slx5; also in the slx8-CD strain
[1] = biological target: T1, 3FLAG-Euc1-DBD* (W333A, R334A) (S. cerevisiae) (UniProt Q04461)
T1 sequence: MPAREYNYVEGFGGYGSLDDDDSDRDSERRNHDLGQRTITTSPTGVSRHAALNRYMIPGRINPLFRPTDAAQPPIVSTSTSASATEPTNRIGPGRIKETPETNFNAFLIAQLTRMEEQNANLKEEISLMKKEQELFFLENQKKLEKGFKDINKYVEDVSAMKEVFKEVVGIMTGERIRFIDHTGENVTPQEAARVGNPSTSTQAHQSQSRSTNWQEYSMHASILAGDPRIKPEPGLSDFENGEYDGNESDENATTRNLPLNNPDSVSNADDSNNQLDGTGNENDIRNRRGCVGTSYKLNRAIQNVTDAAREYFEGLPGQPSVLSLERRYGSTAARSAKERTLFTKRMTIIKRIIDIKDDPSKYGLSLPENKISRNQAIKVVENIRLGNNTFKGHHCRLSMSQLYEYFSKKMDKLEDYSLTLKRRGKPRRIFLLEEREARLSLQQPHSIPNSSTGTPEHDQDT

[2] = biological target: T2, 3FLAG-Euc1 (wild type) (S. cerevisiae) (UniProt Q04461)
T2 sequence: T1 sequence with A333W, A334R

[3] = biological target: T3, 3FLAG-Euc1-KR (K231R) (S. cerevisiae) (UniProt Q04461)
T3 sequence: T1 sequence with K231R, A333W, A334R

binding [1]: binds
binding [2]: binds
binding [3]: binds
B1: Slx5, endogenous (protein, UniProt P32828 1-619)
chain: MHSDTNGRTKSNNSPSDNNPNETVILIDSDKEEDASIREANLPVRLYPDRRVGRRRDALNRFVRSDSRSRNSQRTHITASSERPDFQANNDDITIIREVGRFFGDDGPIDPSAHYVDLDQEPGSETLETPRTIQVDNTNGYLNDNGNNNESDDGLTIVEERTTRPRVTLNLPGGERLEVTATTTDIPIRRSFEFQEDLGASRRQLLRRSATRARNLFVDRSDENDEDWTDDTHNLPEAIQRARRESRMRMSRRIAERQRRVQQQRVSSDENISTSIRLQSIRERIQSYTPDIRSAFHRAESLHEFRSILQNVAPITLQECEEELMALFTEFRNQLLQNWAIDRVRNTQEEALRLHREALERQERTAGRVFHRGTLRESITNYLNFNGEDGFLSRLWSGPALSDADEERHTQNIIDMIQEREERERDVVMKNLMNKTRAQQEEFEARAASLPEGYSASFDTTPKMKLDITKNGKEETIIVTDDDLAKTLEDIPVCCLCGAELGVGIPDDFTGISQKDRGVSFEGLVSKYKFHCPYQTLARPSMLDRDLSKRTFIASCGHAFCGRCFARIDNAKKKSKMPKKKLAQLKGSAHPDNYGPKLCPADSCKKLIRSRGRLKEVYF
